Results are given in words; binding and its absence hold for the method and conditions named. For some of these results: Binding seen in cells or lysates may run through a third protein. Some results given as binding are weak or reduced against the parent protein; the word gives no strength. For some of these results: Tags and fused reporters may be left off the sequences shown.
What was measured:
Conditions in all cases: remark: other sources report otherwise
[1] = biological target: T1, cSFB-tagged RBPJ (recombination signal-binding protein of immunoglobulin kappa J region with C-terminal SFB tag), Q06330; test: co-IP and kinetic analysis with purified proteins
[2] = biological target: RBPJ, endogenous in HEK293T cells, Q06330; test: co-IP from HEK293T lysates with antibodies against endogenous FBXO42 or RBPJ, western blot
[3] = biological target: T1, cSFB-tagged RBPJ (recombination …); test: TAP-MS with cSFB-RBPJ as the bait in HEK293T cells
[4] = biological target: T1, cSFB-tagged RBPJ (recombination …); test: co-IP of Myc-tagged FBXO42 and cSFB-tagged RBPJ in HEK293T cells (S beads or anti-MYC antibody), western blot

B1: FLAG-FBXO42 protein purified from 293F cells, Q6P3S6 1-717 (protein, UniProt Q6P3S6 1-717, looked up, not shown: small tags and cut ends)
chain: MASSSDSEDDSFMAVDQEETVLEGTMDQDEEPHPVLEAEETRHNRSMSELPEEVLEYILSFLSPYQEHKTAALVCKQWYRLIKGVAHQCYHGFMKAVQEGNIQWESRTYPYPGTPITQRFSHSACYYDANQSMYVFGGCTQSSCNAAFNDLWRLDLNSKEWIRPLASGSYPSPKAGATLVVYKDLLVLFGGWTRPSPYPLHQPERFFDEIHTYSPSKNWWNCIVTTHGPPPMAGHSSCVIDDKMIVFGGSLGSRQMSNDVWVLDLEQWAWSKPNISGPSPHPRGGQSQIVIDDATILILGGCGGPNALFKDAWLLHMHSGPWAWQPLKVENEEHGAPELWCHPACRVGQCVVVFSQAPSGRAPLSPSLNSRPSPISATPPALVPETREYRSQSPVRSMDEAPCVNGRWGTLRPRAQRQTPSGSREGSLSPARGDGSPILNGGSLSPGTAAVGGSSLDSPVQAISPSTPSAPEGYDLKIGLSLAPRRGSLPDQKDLRLGSIDLNWDLKPASSSNPMDGMDNRTVGGSMRHPPEQTNGVHTPPHVASALAGAVSPGALRRSLEAIKAMSSKGPSASAALSPPLGSSPGSPGSQSLSSGETVPIPRPGPAQGDGHSLPPIARRLGHHPPQSLNVGKPLYQSMNCKPMQMYVLDIKDTKEKGRVKWKVFNSSSVVGPPETSLHTVVQGRGELIIFGGLMDKKQNVKYYPKTNALYFVRAKR
- binding [1]: binds

B2: FBXO42, endogenous in HEK293T cells, Q6P3S6 1-717 (protein, UniProt Q6P3S6 1-717, looked up)
chain: B1 chain
- binding [2]: binds
- binding [3]: binds

B3: Myc-tagged FBXO42, Q6P3S6 1-717 (protein, UniProt Q6P3S6 1-717, looked up, not shown: small tags and cut ends)
chain: B1 chain
- binding [4]: binds

Source: patent US20260023068A1, “USE OF A FBXO42 SPECIFIC INHIBITOR IN TREATING NOTCH SIGNALING-DEPENDENT DISEASE” (WESTLAKE UNIVERSITY, priority 2022, published 2026)
